PubChem BioAssay (NCATS)
Where “and” joins values, the source holds several entries; their conditions need not be identical. Identical values can stand only once. The inconclusive results got no clear call from the source; some entries with a clear call stand among them for comparison. For some of these results: Potencies of inconclusive entries are doubtful fits and often do not repeat. Calls of active or inactive are those of the source. Unless noted, calls follow the shape of the dose curve; as a rule, active = well fitted curve in either direction with a large enough effect (not every such curve was filed as active); inconclusive = small, poorly fitted or top-dose-only effect, or another doubt; inactive = flat fitted curve, though single readings scatter.

Sequences of proteins named here, by UniProt entry; tags and fusion partners are left off. A change or cut given only in a name is not applied to a line headed by its entry.
UniProt P04150: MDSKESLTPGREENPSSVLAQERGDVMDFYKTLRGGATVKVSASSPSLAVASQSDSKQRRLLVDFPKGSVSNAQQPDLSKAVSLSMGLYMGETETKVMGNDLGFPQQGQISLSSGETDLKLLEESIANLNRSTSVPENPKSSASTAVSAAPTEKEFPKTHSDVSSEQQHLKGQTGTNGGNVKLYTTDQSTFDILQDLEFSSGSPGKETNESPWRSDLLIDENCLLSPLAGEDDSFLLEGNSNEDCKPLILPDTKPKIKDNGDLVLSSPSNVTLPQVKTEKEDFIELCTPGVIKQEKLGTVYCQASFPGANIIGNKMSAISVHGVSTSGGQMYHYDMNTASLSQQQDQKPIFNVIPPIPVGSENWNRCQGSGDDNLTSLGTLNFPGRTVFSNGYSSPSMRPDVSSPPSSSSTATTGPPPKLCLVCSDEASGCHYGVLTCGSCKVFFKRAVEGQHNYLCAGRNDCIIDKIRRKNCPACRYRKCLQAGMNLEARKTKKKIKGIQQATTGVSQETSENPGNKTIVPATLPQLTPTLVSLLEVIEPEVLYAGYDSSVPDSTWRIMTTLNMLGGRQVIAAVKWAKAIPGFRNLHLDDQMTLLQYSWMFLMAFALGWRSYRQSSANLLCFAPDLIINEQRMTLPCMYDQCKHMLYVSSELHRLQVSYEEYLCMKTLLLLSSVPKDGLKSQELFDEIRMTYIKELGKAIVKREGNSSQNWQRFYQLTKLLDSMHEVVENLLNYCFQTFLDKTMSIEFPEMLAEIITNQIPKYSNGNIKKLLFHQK
UniProt Q07343: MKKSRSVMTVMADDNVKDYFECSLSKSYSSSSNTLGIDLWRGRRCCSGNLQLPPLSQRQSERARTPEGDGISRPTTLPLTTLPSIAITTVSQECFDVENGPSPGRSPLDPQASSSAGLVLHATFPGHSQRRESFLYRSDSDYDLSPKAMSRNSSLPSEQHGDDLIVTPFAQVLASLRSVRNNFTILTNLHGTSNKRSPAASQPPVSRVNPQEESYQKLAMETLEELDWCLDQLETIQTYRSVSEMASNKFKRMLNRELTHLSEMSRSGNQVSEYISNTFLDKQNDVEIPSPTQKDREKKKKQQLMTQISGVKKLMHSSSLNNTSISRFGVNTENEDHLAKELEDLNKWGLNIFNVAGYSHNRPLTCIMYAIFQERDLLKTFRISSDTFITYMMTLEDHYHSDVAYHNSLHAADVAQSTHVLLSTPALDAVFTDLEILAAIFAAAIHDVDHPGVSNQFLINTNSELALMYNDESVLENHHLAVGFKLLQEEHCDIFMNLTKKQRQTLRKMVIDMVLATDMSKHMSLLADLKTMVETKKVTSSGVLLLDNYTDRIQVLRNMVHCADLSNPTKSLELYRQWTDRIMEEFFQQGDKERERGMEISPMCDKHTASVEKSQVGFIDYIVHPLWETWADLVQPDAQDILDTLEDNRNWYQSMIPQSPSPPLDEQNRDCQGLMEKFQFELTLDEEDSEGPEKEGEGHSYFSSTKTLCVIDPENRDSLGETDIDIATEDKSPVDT
UniProt P08684, whole entry, looked up: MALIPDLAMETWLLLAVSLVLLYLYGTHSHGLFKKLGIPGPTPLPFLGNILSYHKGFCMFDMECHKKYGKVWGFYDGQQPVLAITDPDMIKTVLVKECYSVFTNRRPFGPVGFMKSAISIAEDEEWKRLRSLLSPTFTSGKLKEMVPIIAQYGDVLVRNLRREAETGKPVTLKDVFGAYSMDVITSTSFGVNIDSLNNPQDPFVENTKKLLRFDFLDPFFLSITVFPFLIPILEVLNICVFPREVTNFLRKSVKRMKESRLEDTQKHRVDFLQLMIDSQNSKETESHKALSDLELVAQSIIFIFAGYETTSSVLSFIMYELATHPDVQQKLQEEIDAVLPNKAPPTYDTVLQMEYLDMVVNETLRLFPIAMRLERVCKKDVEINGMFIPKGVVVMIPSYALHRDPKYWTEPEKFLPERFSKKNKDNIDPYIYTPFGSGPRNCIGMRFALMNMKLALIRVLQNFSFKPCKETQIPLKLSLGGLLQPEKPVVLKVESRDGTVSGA

Tested on: not listed separately
Experiment: Stat Signaling Pathway (AID 446);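 also: ME-180 cervical cancer cells given 40 pM IL-6 alongside compound; SIE-controlled beta-lactamase reporter measured as 460/530 nm FRET emission ratio; % is scaled to controls: 0 for no effect and ±100 for the full control effect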
Conditions: ME-180 SIE beta-lactamase reporter, IL-6 stimulated, 5 h; at 7.69 µM (top of the series) unless noted
Method in brief: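 ME-180 cells carrying a SIE-driven beta-lactamase reporter are stimulated with 40 pM IL-6 for 5 h at 37C in the presence of compound. The 460/530 nm FRET substrate ratio is read after 2.5 h at RT. Data are normalised to 300 pM IL-6 and to 125 nM JAK inhibitor controls.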

Row | SMILES | activity, negative = inhibition
1 | COc1ncc2nc(-c3cccs3)c(=O)n(Cc3cccs3)c2n1 | inactive: -1.88%
2 | Cc1noc(C)c1C(=O)N1CCC2(CC1)CCN(c1cccc(-c3ccccc3)c1)CC2 | inconclusive: -16.7% [inhibitor]
3 | Cn1cc(-c2nc3cnc(Oc4ccccc4)nc3n(CCC#N)c2=O)c2ccccc21 | inconclusive: 45.6% [activator]
4 | Cn1c(=O)c(-c2ccc(F)cc2)nc2cnc(N3CCOCC3)nc21 | inconclusive: 37.8% [activator]
5 | CC(C)NC(=O)N1CC[C@@]2(CCCN(S(C)(=O)=O)C2)C1 | inactive: -2.56%
6 | O=c1c(CCc2ccccc2)nc2cnc(N3CCOCC3)nc2n1CCc1ccccc1 | inactive: -4.94%
7 | Cn1c(=O)c(-c2ccccc2)nc2cnc(Oc3ccccc3)nc21 | inactive: -0.677%
8 | N#Cc1cccc(-c2nc3cnc(N4CCNCC4)nc3n(C3CC3)c2=O)c1 | inconclusive: 44.3% [activator]
9 | COCCn1c(=O)c(-c2cccs2)nc2cnc(OCc3ccccc3)nc21 | inconclusive: 33.7% [activator]
10 | CN(C)Cc1ccccc1-c1nc(NC2CC2)c2ccccc2n1 | inactive: 7.64%
11 | COc1ccc(-c2nc3cnc(N4CCOCC4)nc3n(C3CC3)c2=O)cc1 | inconclusive: 45.1% [activator]
12 | C/C(=C(/CCO)SSC[C@@H]1CCCO1)N(C=O)Cc1cnc(C)nc1N | inactive: -13.2% [at 17.2 µM]

Molecular target: Glucocorticoid receptor (Homo sapiens) (UniProt P04150)
Experiment: GR-EFC Redistribution (AID 451; calls by dose curve; also: potency is read from the fitted curve at half-maximal effect)
Conditions: CHO-K1 GR-EFC translocation, beta-gal luminescence, 2 h
Method in brief: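 Translocation of GR-ED fusion to nuclear EA restores b-gal, read by luminescence after 1 h room-temperature detection. Engineered CHO-K1 biosensor cells, 1,000/well, exposed 2 h at 37 C to titrations up to 46 uM final.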

Row | SMILES | Potency
13 | COc1ccccc1CN1CC[C@@]2(CCCN(C(=O)c3ccncc3)C2)C1 | inconclusive: > 46 µM [single point]
14 | CC(=O)[C@@]1(O)CC[C@H]2[C@H]3C[C@@H](C)C4=CC(=O)C=C[C@]4(C)[C@@]3(F)[C@@H](O)C[C@]21C | active: 0.00821 µM
15 | C[C@]12C=CC(=O)C=C1CC[C@@H]1[C@H]3C[C@@H](O)[C@](O)(C(=O)CO)[C@@]3(C)C[C@H](O)[C@]12F | active: 0.0827 µM
16 | CCNc1ncc2nc(-c3cc(F)cc(F)c3)c(=O)n(C3CC3)c2n1 | inconclusive: > 46 µM [single point]
17 | CS(=O)(=O)N1CCC2(CC1)CN(c1ccncc1)C2 | inconclusive: > 46 µM [single point]

Molecular target: 3',5'-cyclic-AMP phosphodiesterase 4B (Homo sapiens) (UniProt Q07343)
Experiment: qHTS Assay for Inhibitors of PDE-IV (AID 607; active = well fitted activation curve with a large enough effect in the main read-out, with a control signal flat, not every such curve was filed as active; inconclusive = small, poorly fitted or top-dose-only effect, or effect the other way, or a change in a side signal; also: potency is read from the fitted curve at half-maximal effect; as to activation (PDE inhibition): % of control where 0% means no effect)
Conditions: HEK293 ACTOne CNG channel cells, membrane potential fluorescence; activation (PDE inhibition): at 22.9 µM (top of the series)
Method in brief: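 HEK293 ACTOne cells with CNG channel (1000/well), endogenous PDE4; membrane potential dye, compounds up to 22.9 uM final. Fluorescence Ex 535/Em 590; RO 20-1724 (100 uM final) as reference.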

Row | SMILES | Potency
18 | COc1ncc2nc(-c3cccs3)c(=O)n(Cc3cccs3)c2n1 | inconclusive: 12.6 µM [activator, single point]
19 | Cc1ccc2c(c1)c1c3n2CCN[C@H]3CCC1 | inactive and inconclusive: 1.9 µM [activator, partial curve, poor fit]
20 | CC(C)NC(=O)N1CC[C@@]2(CCCN(S(C)(=O)=O)C2)C1 | inconclusive: 12.6 µM [activator, single point]
21 | O=c1c(CCc2ccccc2)nc2cnc(N3CCOCC3)nc2n1CCc1ccccc1 | inconclusive: 7.94 µM [activator, single point]
22 | CN(Cc1ccco1)c1ccnc(-c2ccoc2)n1 | inactive
23 | COCCn1c(=O)c(-c2cccs2)nc2cnc(OCc3ccccc3)nc21 | inconclusive: 12.6 µM [activator, single point]
24 | CN(C)Cc1ccccc1-c1nc(NC2CC2)c2ccccc2n1 | inconclusive: 10 µM [rising, partial curve]
25 | COc1ccc(-c2nc3cnc(N4CCOCC4)nc3n(C3CC3)c2=O)cc1 | inconclusive: 1.26 µM [rising, full curve, poor fit]

Molecular target: Cytochrome P450 3A4 (Homo sapiens) (UniProt P08684)
Experiment: qHTS Assay for Inhibitors and Substrates of Cytochrome P450 3A4 (AID 884; active = well fitted curve in the direction sought with a large enough effect; inconclusive = small, poorly fitted or top-dose-only effect, or another doubt; inactive = no such curve, though single readings can be large; an effect the other way counts as inactive or inconclusive; also: potency is read from the fitted curve at half-maximal effect; nearly all actives have a fitted effect of over 50% in size)
Conditions: recombinant CYP3A4, Luciferin-PPXE luminescence; activity change, negative = inhibition: at 57.1 µM (top of the series)
Method in brief: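 20 nM human CYP3A4 with 25 uM Luciferin-PPXE (at KM) in 200 mM KPO4, preincubated 10 min with compound; NADPH regeneration started a 60 min RT reaction. Luciferin detected by luminescence, normalized to 57 uM ketoconazole as full inhibition.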

Row | SMILES | Potency
26 | COc1cc(O)c(C(=O)/C=C/c2ccc(O)c(OC)c2)c(OC)c1 | active: 7.94 µM
27 | Cn1cc(-c2nc3cnc(Oc4ccccc4)nc3n(CCC#N)c2=O)c2ccccc21 | inconclusive: 7.94 µM [inhibitor, partial curve]
28 | Cc1noc(C)c1-c1cncnc1NC1CC1 | active: 7.94 µM
29 | COc1cc(/C=C/C(=O)/C=C(O)/C=C/c2ccc(O)c(OC)c2)ccc1O | inconclusive: 25.1 µM [inhibitor, partial curve]
30 | COCCn1c(=O)c(-c2cccs2)nc2cnc(OCc3ccccc3)nc21 | inconclusive: 3.16 µM [inhibitor, full curve]
31 | C[C@@H]1C[C@H]2[C@H]3C[C@@H](F)C4=CC(=O)C=C[C@]4(C)[C@@]3(Cl)[C@@H](O)C[C@@]2(C)[C@@H]1C(=O)COC(=O)C(C)(C)C | inconclusive: 0.398 µM [inhibitor, full curve, poor fit]

Molecular target: Cytochrome P450 3A4 (Homo sapiens) (UniProt P08684)
Experiment: qHTS Assay for Activators of Cytochrome P450 3A4 (AID 885; active = well fitted curve in the direction sought with a large enough effect; inconclusive = small, poorly fitted or top-dose-only effect, or another doubt; inactive = no such curve, though single readings can be large; an effect the other way counts as inactive or inconclusive; also: nearly all actives have a fitted effect of over 65% in size; also: potency is read from the fitted curve at half-maximal effect)
Conditions: recombinant CYP3A4, Luciferin-PPXE luminescence, 60 min; series mostly up to 57.1 µM
Method in brief: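 Human CYP3A4 (20 nM) with Luciferin-PPXE at 25 uM (its KM) in 200 mM KPO4; 10 min compound preincubation, then NADPH regeneration and 60 min reaction at RT. Luciferin read by luminescence; normalized to 57 uM ketoconazole full inhibition.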

Row | SMILES | Potency
32 | Cn1c(=O)c(-c2ccc(F)cc2)nc2cnc(N3CCOCC3)nc21 | inconclusive: 10 µM [activator, partial curve]
33 | Cn1c(=O)c(-c2ccccc2)nc2cnc(Oc3ccccc3)nc21 | inconclusive: 2.51 µM [activator, full curve]
34 | N#Cc1cccc(-c2nc3cnc(N4CCNCC4)nc3n(C3CC3)c2=O)c1 | inactive
